Survivor count and T/C data for 34 compounds are collected here from PubChem BioAssay AID256 (DTP/NCI, 2004).

The test system of the assay is CD2F1 mice, L1210 leukemia ip, survival T/C. The assay is described as follows: NCI In Vivo Anticancer Drug Screen. Data for tumor model L1210 Leukemia (intraperitoneal) in CD2F1 (CDF1) mice. Conditions: higher T/C = longer survival. Put shortly:
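Mice carrying a transplanted tumor received test compound or vehicle alone. The value is the measurement in the treated group divided by that in the vehicle-treated control group.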

Where [1] appears, read: T/C endpoint: mean survival time, dose: 400.0 mg/kg/injection, schedule: Q04DX003 (ip), vehicle: saline with Tween-80.
The mark [2] stands for this setting: T/C endpoint: mean survival time, dose: 75.0 mg/kg/injection, schedule: Q01DX001 (ip), vehicle: saline.
Setting [3] is: T/C endpoint: mean survival time, dose: 300.0 mg/kg/injection, schedule: Q01DX001 (ip), vehicle: saline.
The mark [4] stands for this setting: T/C endpoint: mean survival time, dose: 100.0 mg/kg/injection, schedule: Q01DX001 (ip), vehicle: saline with Tween-80.
Where [5] appears, read: T/C endpoint: mean survival time, dose: 200.0 mg/kg/injection, schedule: Q01DX001 (ip), vehicle: saline with Tween-80.
Setting [6] is: T/C endpoint: mean survival time, dose: 400.0 mg/kg/injection, schedule: Q01DX001 (ip), vehicle: saline with Tween-80.
The mark [7] stands for this setting: T/C endpoint: mean survival time, dose: 400.0 mg/kg/injection, schedule: Q04DX003 (ip), vehicle: saline.
Setting [8] is: T/C endpoint: mean survival time, dose: 200.0 mg/kg/injection, schedule: Q04DX003 (ip), vehicle: saline with Tween-80.
The mark [9] stands for this setting: T/C endpoint: mean survival time, dose: 100.0 mg/kg/injection, schedule: Q01DX009 (ip), vehicle: saline with Tween-80.
The mark [10] stands for this setting: T/C endpoint: mean survival time, dose: 200.0 mg/kg/injection, schedule: Q01DX009 (ip), vehicle: saline with Tween-80.
Setting [11] is: T/C endpoint: mean survival time, dose: 400.0 mg/kg/injection, schedule: Q01DX009 (ip), vehicle: saline with Tween-80.
The mark [12] stands for this setting: T/C endpoint: mean survival time, dose: 50.0 mg/kg/injection, schedule: Q01DX009 (ip), vehicle: Klucel (hydroxypropylcellulose) (HPC).
The mark [13] stands for this setting: T/C endpoint: mean survival time, dose: 400.0 mg/kg/injection, schedule: Q01DX001 (ip), vehicle: Klucel (hydroxypropylcellulose) (HPC).

The list does not hold the whole screen: it is rich in T/C values a quarter to a half above the control, in often repeated tests (any T/C) and in doses without a T/C. Further doses and runs are listed elsewhere. T/C is the treated group as % of the vehicle group. Some doses have a count of surviving animals in place of a T/C: the source holds a T/C of zero for them, seemingly a mark for toxic or unscored doses. Some doses without a T/C left all or most animals alive at the check, yet need not have been tolerated: survival well below the control is almost never listed, so the zero probably covers shortened survival too. Counts of survivors are from the toxicity check (mostly the fifth day) where no day follows; animals may have died later. Schedule codes are those of the source, taken here to give the interval after Q, in days (D) or hours (H), and the number of doses after X. Where survival is the endpoint, the PubChem record calls one and a half times the control and up active, and a quarter to a half above the control has no call in these data; cut-offs in other NCI protocols can differ. Some T/C values carry the count of animals alive at the toxicity check (mostly the fifth day); without a count, all were alive then. Some doses were run more than once; their values stand side by side, smallest first.

`Nc1c[n+]([O-])cc2ccccc12`: the survivor count under setting [1] is recorded as 0 of 6.

For `O=C1OCCCC1O` (centres undefined), the survivor count by setting is: under setting [2], 6 of 6; under setting [3], 3 of 6.

Consider `O=C(O)c1sc(C(=O)O)c(O)c1O`, for which the survivor count is, setting by setting: under setting [4], 1 of 3; under setting [5], 1 of 3; under setting [6], 0 of 3.

For the compound `Cc1cc2nc(CN)[nH]c2cc1C`, the survivor count under setting [7] is 2 of 6.

For `CCN(CC)CCNc1cc(C)nc(/N=C(\N)Nc2ccc(Br)c(C(F)(F)F)c2)n1`, the survivor count by setting is: under setting [8], 5 of 6; under setting [1], 0 of 6.

For `CCOC(=O)/C(C#N)=C1\CCCc2ccccc21`, under “T/C endpoint: mean survival time, dose: 400.0 mg/kg/injection, schedule: Q04DX003 (ip), vehicle: acetone”, the survivor count is 1 of 6.

For the compound `N#CCSc1ncnc2nc[nH]c12`, where the note is “T/C endpoint: mean survival time, dose: 60.0 mg/kg/injection, schedule: Q01DX009 (ip), vehicle: saline”, the T/C is 126 % of control. The survivor count by setting is: (T/C endpoint: mean survival time, dose: 120.0 mg/kg/injection, schedule: Q01DX009 (ip), vehicle: saline) 3 of 6; (T/C endpoint: median survival time, dose: 120.0 mg/kg/injection, schedule: Q01DX009 (ip), vehicle: saline) 3 of 6; (T/C endpoint: median survival time, dose: 240.0 mg/kg/injection, schedule: Q01DX009 (ip), vehicle: saline) 0 of 6.

Turning to `CN(C)C(=O)On1cccc1C#N`, the survivor count under setting [4] was 0 of 3, the survivor count under setting [5] is reported as 0 of 3 and the survivor count under setting [6] is 0 of 3.

For the compound `S=C1CCCCN1`, where the note is “T/C endpoint: median survival time, dose: 400.0 mg/kg/injection, schedule: Q01DX009 (ip), vehicle: distilled water + alcohol”, the survivor count is 0 of 6.

In the case of `CC(=O)OC1COC(n2c(=S)n(-c3ccccc3)c(=N)c3ccccc32)C(OC(C)=O)C1OC(C)=O` (centres undefined), the survivor count (T/C endpoint: mean survival time, dose: 100.0 mg/kg/injection, schedule: Q01DX005 (ip), vehicle: distilled water + Tween-80) is reported as 6 of 6.

Consider `O=[N+]([O-])/C=C\c1ccccc1`, for which the survivor count reads like this: under setting [9], 3 of 6; under setting [10], 0 of 6; under setting [11], 0 of 6.

Regarding `Cc1cccc[n+]1Cc1ccccc1`, the survivor count under setting [2] is recorded as 2 of 6; the survivor count (T/C endpoint: mean survival time, dose: 150.0 mg/kg/injection, schedule: Q01DX001 (ip), vehicle: saline) is on record as 0 of 6; the survivor count under setting [3] was 6 of 6.

Consider `COc1cc2cc[n+]3c(C)c4cc5c(cc4cc3c2cc1OC)OCO5` (tested in a mixture with another compound), for which the T/C by setting is: (T/C endpoint: mean survival time, dose: 11.0 mg/kg/injection, schedule: Q01DX009 (ip), vehicle: saline with Tween-80) 129 % of control; (T/C endpoint: mean survival time, dose: 11.0 mg/kg/injection, schedule: Q01DX009 (ip), vehicle: saline) 137 % of control; (T/C endpoint: mean survival time, dose: 12.5 mg/kg/injection, schedule: Q01DX009 (ip), vehicle: saline) 133 % of control; (T/C endpoint: mean survival time, dose: 16.5 mg/kg/injection, schedule: Q01DX009 (ip), vehicle: saline with Tween-80) 134 % of control; (T/C endpoint: mean survival time, dose: 16.5 mg/kg/injection, schedule: Q01DX009 (ip), vehicle: saline) 132 % of control; (T/C endpoint: mean survival time, dose: 25.0 mg/kg/injection, schedule: Q01DX009 (ip), vehicle: saline) 130 and 144 % of control. Moreover, the survivor count under setting [7] was 2 of 6.

Consider `NCCNCCNCCNCCN` (tested in a mixture with another compound), for which the survivor count is on record as 2 of 6 (T/C endpoint: mean survival time, dose: 200.0 mg/kg/injection, schedule: Q01DX009 (ip), vehicle: saline) and 0 of 6 under setting [1].

Take `O=C(O)C1C2CC3C(C2)C31` (centres undefined): under “T/C endpoint: mean survival time, dose: 400.0 mg/kg/injection, schedule: Q01DX009 (ip), vehicle: other”, the survivor count was 2 of 6.

With `O=C(/C=C/c1ccccc1)NC(=S)NCc1ccccc1Cl`, the T/C by setting is: under setting [9], 87, 89 [2 of 3 alive], 92, 100 % of control; under setting [10], 88, 95, 97, 100 % of control; under setting [11], 90, 97, 100 % of control. For the same compound, under setting [11], the survivor count is recorded as 1 of 3.

With `C=CS(C=C)=NS(=O)(=O)c1ccc(C)cc1`, the survivor count under setting [12] was 0 of 6.

On to `CS(=O)(=O)OCCCN(CCCOS(C)(=O)=O)c1ccc(C=Nc2ccc(-c3csc(COc4ccc(Cl)cc4Cl)n3)cc2)cc1`, for which the survivor count by setting is: under setting [10], 6 of 6; under setting [11], 6 of 6.

`CCC(N)Cc1ccc2c(c1)OCO2` (centres undefined): the survivor count by setting is: under setting [8], 0 of 6; under setting [1], 0 of 6.

Take `S=c1[nH]cc2cnccn12`: the survivor count under setting [11] was 3 of 10.

Consider `Oc1cccc2c1NCCC2`, for which the survivor count under setting [8] was 3 of 6 and the survivor count under setting [1] was 0 of 6.

Regarding `COc1ccc(C(=O)C/C(=N\N(C(=O)c2ccc(OC)cc2)c2ccccc2)c2ccc(OC)cc2)cc1`, the survivor count under setting [1] is 6 of 6.

Consider `CCN(CC)Cc1cc(Nc2cc(C)nc(/N=C(\N)Nc3cc(Cl)cc(Cl)c3)n2)ccc1O`, for which the survivor count under setting [13] was 1 of 6.

As for `CC(C)CCC(C(=O)O)C(=O)O`, under setting [3], the survivor count is listed as 1 of 6.

As to `Nc1ccc(SCCCc2c(N)nc(N)nc2N)cc1`, the survivor count (T/C endpoint: mean survival time, dose: 400.0 mg/kg/injection, schedule: Q01DX001 (ip), vehicle: other) is 1 of 3.

In the case of `CC#CC(=O)SCCNC(=O)CCNC(C)=O`, the survivor count (T/C endpoint: mean survival time, dose: 200.0 mg/kg/injection, schedule: Q04DX003 (ip), vehicle: saline) was 0 of 6.

As for `CN(C)c1ccc2c(N(C)C)cc(N(C)C)nc2c1`, the survivor count is reported as 0 of 6 under setting [12]; 0 of 6 (T/C endpoint: mean survival time, dose: 100.0 mg/kg/injection, schedule: Q01DX009 (ip), vehicle: Klucel (hydroxypropylcellulose) (HPC)); 0 of 6 (T/C endpoint: mean survival time, dose: 200.0 mg/kg/injection, schedule: Q01DX009 (ip), vehicle: Klucel (hydroxypropylcellulose) (HPC)).

Turning to `C[Si](C)(C)n1nnn(-c2ccccc2)c1=O`, the survivor count under setting [11] is 3 of 6.

With `COc1ccc(CC(N)C(=O)O)cc1N(CCCl)CCCl` (centres undefined), the T/C was 142 % of control (T/C endpoint: mean survival time, dose: 4.5 mg/kg/injection, schedule: Q01DX001 (ip), vehicle: carboxymethylcellulose (CMC)) and 140 % of control (T/C endpoint: mean survival time, dose: 7.0 mg/kg/injection, schedule: Q01DX001 (ip), vehicle: carboxymethylcellulose (CMC)).

With `Cn1c(CC(O)(C(F)(F)F)C(F)(F)F)cc(=O)n1-c1ccccc1`, the survivor count under setting [1] is 6 of 6.

On to `O=C(CC(SCCN1CCOCC1)c1ccccc1)c1ccc([N+](=O)[O-])cc1` (centres undefined), for which, under setting [13], the survivor count is given as 0 of 3.

Regarding `Cc1cccc(OP(=O)(c2ccccc2)c2ccccc2)c1`, the survivor count is 5 of 6 (T/C endpoint: mean survival time, dose: 100.0 mg/kg/injection, schedule: Q01DX005 (ip), vehicle: saline with Tween-80); 6 of 6 (T/C endpoint: mean survival time, dose: 200.0 mg/kg/injection, schedule: Q01DX005 (ip), vehicle: saline with Tween-80); 6 of 6 (T/C endpoint: mean survival time, dose: 400.0 mg/kg/injection, schedule: Q01DX005 (ip), vehicle: saline with Tween-80).

Consider `Nc1ncnc2c1ncn2C1CC(CO)C(O)OC1O` (centres undefined), for which the T/C reads like this: (T/C endpoint: mean survival time, dose: 100.0 mg/kg/injection, schedule: Q04DX002 (ip), vehicle: saline with Tween-80) 137 % of control; (T/C endpoint: mean survival time, dose: 200.0 mg/kg/injection, schedule: Q04DX002 (ip), vehicle: saline with Tween-80) 147 % of control [2 of 3 alive]. For the same compound, the survivor count (T/C endpoint: mean survival time, dose: 400.0 mg/kg/injection, schedule: Q04DX002 (ip), vehicle: saline with Tween-80) is listed as 0 of 3.

For the compound `C=CS(=O)CCCCCCC` (centres undefined), the survivor count reads like this: (T/C endpoint: mean survival time, dose: 100.0 mg/kg/injection, schedule: Q04DX002 (ip), vehicle: saline) 0 of 3; (T/C endpoint: mean survival time, dose: 200.0 mg/kg/injection, schedule: Q04DX002 (ip), vehicle: saline) 2 of 3; (T/C endpoint: mean survival time, dose: 400.0 mg/kg/injection, schedule: Q04DX002 (ip), vehicle: saline) 0 of 3.
